This note sets out measurements from PMC3670919.

Amino acid sequences for entries named in this document (tags omitted). A change or cut given only in a name is not applied to a line headed by its entry. Residues count along the entry.
UniProt Q9BQA1: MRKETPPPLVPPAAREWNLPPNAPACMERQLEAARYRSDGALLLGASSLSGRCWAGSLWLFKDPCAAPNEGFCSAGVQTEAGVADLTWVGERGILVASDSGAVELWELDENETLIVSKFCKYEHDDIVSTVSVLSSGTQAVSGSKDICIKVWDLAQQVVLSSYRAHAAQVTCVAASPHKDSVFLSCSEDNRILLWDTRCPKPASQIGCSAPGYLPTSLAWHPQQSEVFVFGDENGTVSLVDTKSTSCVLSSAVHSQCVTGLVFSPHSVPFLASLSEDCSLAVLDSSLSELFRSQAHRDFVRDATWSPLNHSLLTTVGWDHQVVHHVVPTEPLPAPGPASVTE
p44/WDR77 CytoTrap bait (pSos-p44): residues 2-342 of Q9BQA1

For test [1], the target named is GST-p44 fusion protein (human) (UniProt Q9BQA1). Nature of the test: pull-down; GST or GST-p44 (1 μg) immobilized on glutathione-agarose beads, incubated with 5 µl reticulocyte lysate with 35S-labeled protein; 20 mM HEPES pH 7.9, 0.2 mM EDTA, 20% glycerol, 2 mM DTT, 150 or 300 mM KCl, 0.1% NP-40; 2 h at 4 C; autoradiography; only the target purified.
Test [2] addresses p44/WDR77 CytoTrap bait (pSos-p44) (human) (UniProt Q9BQA1). Nature of the test: two-hybrid; CytoTrap (Sos recruitment) screen in S. cerevisiae cdc25H; bait pSos-p44, prey human prostate cDNA library fused to the v-Src myristylation sequence; growth on galactose at 37°C.
Test [3] has as its target p44/WDR77, endogenous in LNCaP cells (human (endogenous in LNCaP)) (UniProt Q9BQA1). As to the kind of experiment: co-IP; whole-cell extracts of LNCaP cells transfected with pcDNA-f:PKG-Iβ; anti-p44 antibody on Protein A Sepharose or anti-FLAG M2 agarose; washes with 100 mM KCl, 0.1% NP-40; Western blot with anti-PKG or anti-p44.

No constants are given. Whether binding was seen depends on the method and setting. For part of these data: In cells and extracts the contact can be indirect. Some binding calls cover weakened binding; strength is not graded here. For part of these data: Where a sequence is shown, tags or fusion partners need not be part of it.

B1: 35S-labeled PKG-Iβ ATP-binding domain (ATP; amino acid residues 355-491) (domain or fragment, UniProt Q13976-2 355-491)
chain: EAKAKYEAEAAFFANLKLSDFNIIDTLGVGGFGRVELVQLKSEESKTFAMKILKKRHIVDTRQQEHIRSEKQIMQGAHSDFIVRLYRTFKDSKYLYMLMEACLGGELWTILRDRGSFEDSTTRFYTACVVEAFAYLH
modifications: 35S-labeled
B1: the binding entry in test [1] is “binds”.

B2: PKG-II two-hybrid clone 413-762 (domain or fragment, UniProt Q13237 413-762)
chain: EKRHAKRSMSNWKLSKALSLEMIQLKEKVARFSSSSPFQNLEIIATLGVGGFGRVELVKVKNENVAFAMKCIRKKHIVDTKQQEHVYSEKRILEELCSPFIVKLYRTFKDNKYVYMLLEACLGGELWSILRDRGSFDEPTSKFCVACVTEAFDYLHRLGIIYRDLKPENLILDAEGYLKLVDFGFAKKIGSGQKTWTFCGTPEYVAPEVILNKGHDFSVDFWSLGILVYELLTGNPPFSGVDQMMTYNLILKGIEKMDFPRKITRRPEDLIRRLCRQNPTERLGNLKNGINDIKKHRWLNGFNWEGLKARSLPSPLQRELKGPIDHSYFDKYPPEKGMPPDELSGWDKDF
Take B2: in test [2], the binding entry was “binds”.

B3: 35S-labeled PKG-Iβ kinase domain (KD; amino acid residues 355-686) (domain or fragment, UniProt Q13976-2 355-686)
chain: EAKAKYEAEAAFFANLKLSDFNIIDTLGVGGFGRVELVQLKSEESKTFAMKILKKRHIVDTRQQEHIRSEKQIMQGAHSDFIVRLYRTFKDSKYLYMLMEACLGGELWTILRDRGSFEDSTTRFYTACVVEAFAYLHSKGIIYRDLKPENLILDHRGYAKLVDFGFAKKIGFGKKTWTFCGTPEYVAPEIILNKGHDISADYWSLGILMYELLTGSPPFSGPDPMKTYNIILRGIDMIEFPKKIAKNAANLIKKLCRDNPSERLGNLKNGVKDIQKHKWFEGFNWEGLRKGTLTPPIIPSVASPTDTSNFDSFPEDNDEPPPDDNSGWDIDF
modifications: 35S-labeled
For the molecule B3, in test [1], the binding result is “binds”.

B4: 35S-labeled PKG-Iβ catalytic domain (CD; amino acid residues 491-686) (domain or fragment, UniProt Q13976-2 491-686)
chain: HSKGIIYRDLKPENLILDHRGYAKLVDFGFAKKIGFGKKTWTFCGTPEYVAPEIILNKGHDISADYWSLGILMYELLTGSPPFSGPDPMKTYNIILRGIDMIEFPKKIAKNAANLIKKLCRDNPSERLGNLKNGVKDIQKHKWFEGFNWEGLRKGTLTPPIIPSVASPTDTSNFDSFPEDNDEPPPDDNSGWDIDF
modifications: 35S-labeled
Consider B4, for which the binding entry in test [1] is listed as “binds”.

B5: 35S-labeled PKG-Iβ N-terminal domain (NTD; amino acid residues 1-355) (domain or fragment, UniProt Q13976-2 1-355)
chain: MGTLRDLQYALQEKIEELRQRDALIDELELELDQKDELIQKLQNELDKYRSVIRPATQQAQKQSASTLQGEPRTKRQAISAEPTAFDIQDLSHVTLPFYPKSPQSKDLIKEAILDNDFMKNLELSQIQEIVDCMYPVEYGKDSCIIKEGDVGSLVYVMEDGKVEVTKEGVKLCTMGPGKVFGELAILYNCTRTATVKTLVNVKLWAIDRQCFQTIMMRTGLIKHTEYMEFLKSVPTFQSLPEEILSKLADVLEETHYENGEYIIRQGARGDTFFIISKGTVNVTREDSPSEDPVFLRTLGKGDWFGEKALQGEDVRTANVIAAEAVTCLVIDRDSFKHLIGGLDDVSNKAYEDAE
modifications: 35S-labeled
In the case of B5, in test [1], the binding result is reported as “no binding”.

B6: 35S-labeled full-length PKG-Iβ (FL; amino acid residues 1-686) (enzyme, UniProt Q13976-2 1-686)
chain: MGTLRDLQYALQEKIEELRQRDALIDELELELDQKDELIQKLQNELDKYRSVIRPATQQAQKQSASTLQGEPRTKRQAISAEPTAFDIQDLSHVTLPFYPKSPQSKDLIKEAILDNDFMKNLELSQIQEIVDCMYPVEYGKDSCIIKEGDVGSLVYVMEDGKVEVTKEGVKLCTMGPGKVFGELAILYNCTRTATVKTLVNVKLWAIDRQCFQTIMMRTGLIKHTEYMEFLKSVPTFQSLPEEILSKLADVLEETHYENGEYIIRQGARGDTFFIISKGTVNVTREDSPSEDPVFLRTLGKGDWFGEKALQGEDVRTANVIAAEAVTCLVIDRDSFKHLIGGLDDVSNKAYEDAEAKAKYEAEAAFFANLKLSDFNIIDTLGVGGFGRVELVQLKSEESKTFAMKILKKRHIVDTRQQEHIRSEKQIMQGAHSDFIVRLYRTFKDSKYLYMLMEACLGGELWTILRDRGSFEDSTTRFYTACVVEAFAYLHSKGIIYRDLKPENLILDHRGYAKLVDFGFAKKIGFGKKTWTFCGTPEYVAPEIILNKGHDISADYWSLGILMYELLTGSPPFSGPDPMKTYNIILRGIDMIEFPKKIAKNAANLIKKLCRDNPSERLGNLKNGVKDIQKHKWFEGFNWEGLRKGTLTPPIIPSVASPTDTSNFDSFPEDNDEPPPDDNSGWDIDF
modifications: 35S-labeled
For the molecule B6, the binding entry in test [1] is “binds weakly”.

B7: FLAG-tagged PKG-Iβ (pcDNA-f:PKG-Iβ) (enzyme, UniProt Q13976-2 1-686)
chain: B6 chain
Consider B7, for which the binding result in test [3] is given as “binds weakly”.

B8: PKG-II two-hybrid clone 417-762 (domain or fragment, UniProt Q13237 417-762)
chain: AKRSMSNWKLSKALSLEMIQLKEKVARFSSSSPFQNLEIIATLGVGGFGRVELVKVKNENVAFAMKCIRKKHIVDTKQQEHVYSEKRILEELCSPFIVKLYRTFKDNKYVYMLLEACLGGELWSILRDRGSFDEPTSKFCVACVTEAFDYLHRLGIIYRDLKPENLILDAEGYLKLVDFGFAKKIGSGQKTWTFCGTPEYVAPEVILNKGHDFSVDFWSLGILVYELLTGNPPFSGVDQMMTYNLILKGIEKMDFPRKITRRPEDLIRRLCRQNPTERLGNLKNGINDIKKHRWLNGFNWEGLKARSLPSPLQRELKGPIDHSYFDKYPPEKGMPPDELSGWDKDF
On to B8, for which the binding entry in test [2] is recorded as “binds”.

B9: 35S-labeled PKG-II kinase domain (amino acid residues 415-762) (domain or fragment, UniProt Q13237 415-762)
chain: RHAKRSMSNWKLSKALSLEMIQLKEKVARFSSSSPFQNLEIIATLGVGGFGRVELVKVKNENVAFAMKCIRKKHIVDTKQQEHVYSEKRILEELCSPFIVKLYRTFKDNKYVYMLLEACLGGELWSILRDRGSFDEPTSKFCVACVTEAFDYLHRLGIIYRDLKPENLILDAEGYLKLVDFGFAKKIGSGQKTWTFCGTPEYVAPEVILNKGHDFSVDFWSLGILVYELLTGNPPFSGVDQMMTYNLILKGIEKMDFPRKITRRPEDLIRRLCRQNPTERLGNLKNGINDIKKHRWLNGFNWEGLKARSLPSPLQRELKGPIDHSYFDKYPPEKGMPPDELSGWDKDF
modifications: 35S-labeled
In the case of B9, the binding entry in test [1] is “binds”.
